Assay results as given in article PMC5717335.
Results are given in words; binding and its absence hold for the method and conditions named. Binding seen in cells or lysates may run through a third protein. A yes stands for co-enrichment or nearness to the bait. Other partners may have been found.

The chains behind the UniProt entries cited, without tags or fusion partners.
UniProt Q96IK1: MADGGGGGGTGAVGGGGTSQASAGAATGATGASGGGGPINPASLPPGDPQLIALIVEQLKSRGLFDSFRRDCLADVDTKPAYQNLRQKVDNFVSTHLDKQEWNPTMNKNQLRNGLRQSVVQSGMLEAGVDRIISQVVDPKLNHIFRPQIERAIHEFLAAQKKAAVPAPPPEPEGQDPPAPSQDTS
UniProt Q9UBL3: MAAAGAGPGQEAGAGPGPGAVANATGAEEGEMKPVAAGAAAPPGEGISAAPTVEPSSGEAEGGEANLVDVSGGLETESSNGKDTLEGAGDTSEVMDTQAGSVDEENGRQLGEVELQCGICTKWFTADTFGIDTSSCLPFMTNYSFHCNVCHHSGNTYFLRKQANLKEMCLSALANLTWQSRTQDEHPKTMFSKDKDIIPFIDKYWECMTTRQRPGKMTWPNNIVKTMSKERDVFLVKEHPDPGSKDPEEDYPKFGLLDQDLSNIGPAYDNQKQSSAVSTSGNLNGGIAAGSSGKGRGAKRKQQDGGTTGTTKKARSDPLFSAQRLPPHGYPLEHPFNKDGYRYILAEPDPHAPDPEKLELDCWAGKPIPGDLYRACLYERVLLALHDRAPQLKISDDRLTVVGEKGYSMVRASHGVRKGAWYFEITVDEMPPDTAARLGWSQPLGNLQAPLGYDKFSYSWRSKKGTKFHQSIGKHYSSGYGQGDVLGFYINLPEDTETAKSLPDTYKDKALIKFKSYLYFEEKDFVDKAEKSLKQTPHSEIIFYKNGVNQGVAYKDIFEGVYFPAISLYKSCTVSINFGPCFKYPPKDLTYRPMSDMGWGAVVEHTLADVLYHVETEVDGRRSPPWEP

Biological target: Bod1-GFP (human) (UniProt Q96IK1)
Assay: affinity purification with mass spectrometry; GFP Binder (Chromotek) affinity purification of Bod1-GFP from lysates of HeLa cells arrested in mitosis with STLC, 90 min at 4°C; label-free quantitative MS against cells expressing GFP alone; n = 4 biological replicates

- binding: binds
Substance: ASH2 L (from UniProt Q9UBL3 1-628)
